These are yes or no findings as the source states them, for the method shown. Binding seen in cells or lysates may run through a third protein. Some binding calls cover weakened binding; strength is not graded here. Sequences can lack the tags named with a protein.

The chains behind the UniProt entries cited, without tags or fusion partners.
UniProt Q8ND56: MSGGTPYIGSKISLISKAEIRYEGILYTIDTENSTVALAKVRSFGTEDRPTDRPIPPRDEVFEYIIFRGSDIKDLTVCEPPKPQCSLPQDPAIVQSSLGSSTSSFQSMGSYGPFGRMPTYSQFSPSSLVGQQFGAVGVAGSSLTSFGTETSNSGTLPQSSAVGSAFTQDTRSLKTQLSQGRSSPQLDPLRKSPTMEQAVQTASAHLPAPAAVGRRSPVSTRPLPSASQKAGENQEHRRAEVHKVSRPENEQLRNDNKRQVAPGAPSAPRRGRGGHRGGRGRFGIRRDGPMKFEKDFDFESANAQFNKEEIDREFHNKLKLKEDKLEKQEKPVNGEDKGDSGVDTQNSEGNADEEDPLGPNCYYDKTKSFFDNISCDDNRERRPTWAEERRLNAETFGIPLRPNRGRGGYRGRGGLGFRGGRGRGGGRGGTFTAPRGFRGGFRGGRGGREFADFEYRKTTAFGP
UniProt P06730: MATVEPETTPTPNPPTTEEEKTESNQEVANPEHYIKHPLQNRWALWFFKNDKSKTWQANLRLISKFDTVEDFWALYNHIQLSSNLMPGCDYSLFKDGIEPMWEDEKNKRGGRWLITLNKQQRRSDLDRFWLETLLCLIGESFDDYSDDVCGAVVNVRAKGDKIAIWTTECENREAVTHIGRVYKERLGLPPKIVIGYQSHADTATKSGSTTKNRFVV
UniProt O60573: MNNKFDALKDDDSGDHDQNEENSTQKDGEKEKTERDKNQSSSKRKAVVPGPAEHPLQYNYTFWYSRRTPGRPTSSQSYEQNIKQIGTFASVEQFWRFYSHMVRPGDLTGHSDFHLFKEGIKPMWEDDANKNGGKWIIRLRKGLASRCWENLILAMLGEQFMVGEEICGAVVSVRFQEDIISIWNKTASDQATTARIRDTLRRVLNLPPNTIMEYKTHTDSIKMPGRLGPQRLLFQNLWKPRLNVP

Common to all, as to test: co-IP; anti-FLAG M2 beads on lysates of transfected HEK293T cells, eluted with SDS loading buffer, western blot; lysates with or without RNase A (40 μg/ml); in some panels cells also given siRNA against β-globin, DDX6, UNR or unrip, or co-transfected with HA-DDX6
The target of assay [1] is T1, FLAG-4E-T (4E-Transporter, full length) (human) (UniProt Q9NRA8).
T1 sequence: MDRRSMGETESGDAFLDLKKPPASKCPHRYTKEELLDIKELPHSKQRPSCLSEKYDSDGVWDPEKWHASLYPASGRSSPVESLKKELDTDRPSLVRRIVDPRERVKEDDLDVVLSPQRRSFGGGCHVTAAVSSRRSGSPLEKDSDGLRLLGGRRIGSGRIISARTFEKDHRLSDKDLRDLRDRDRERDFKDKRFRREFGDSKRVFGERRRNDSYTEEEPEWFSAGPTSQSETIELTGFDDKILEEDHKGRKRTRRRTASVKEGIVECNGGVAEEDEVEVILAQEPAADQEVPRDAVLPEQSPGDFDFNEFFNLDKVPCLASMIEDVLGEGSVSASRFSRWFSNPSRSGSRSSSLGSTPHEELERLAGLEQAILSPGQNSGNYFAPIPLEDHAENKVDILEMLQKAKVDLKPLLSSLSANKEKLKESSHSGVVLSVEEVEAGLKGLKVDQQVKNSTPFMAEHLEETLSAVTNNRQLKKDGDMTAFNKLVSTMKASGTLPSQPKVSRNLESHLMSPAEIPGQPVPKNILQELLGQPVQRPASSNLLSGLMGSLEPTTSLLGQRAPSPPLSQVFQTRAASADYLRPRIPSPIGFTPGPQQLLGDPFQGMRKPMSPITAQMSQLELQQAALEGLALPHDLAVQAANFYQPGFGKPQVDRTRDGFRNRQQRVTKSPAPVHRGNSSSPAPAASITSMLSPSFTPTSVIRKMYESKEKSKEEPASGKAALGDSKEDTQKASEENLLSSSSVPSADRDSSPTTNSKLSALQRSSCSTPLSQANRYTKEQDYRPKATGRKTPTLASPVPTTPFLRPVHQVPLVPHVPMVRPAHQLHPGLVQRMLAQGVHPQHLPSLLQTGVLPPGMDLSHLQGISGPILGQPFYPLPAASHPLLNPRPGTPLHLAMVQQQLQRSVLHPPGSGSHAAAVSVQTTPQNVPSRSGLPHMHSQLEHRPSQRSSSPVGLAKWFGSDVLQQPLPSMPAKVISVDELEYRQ

A further assay has as its target T2, FLAG-UNR (human) (UniProt O75534).
T2 sequence: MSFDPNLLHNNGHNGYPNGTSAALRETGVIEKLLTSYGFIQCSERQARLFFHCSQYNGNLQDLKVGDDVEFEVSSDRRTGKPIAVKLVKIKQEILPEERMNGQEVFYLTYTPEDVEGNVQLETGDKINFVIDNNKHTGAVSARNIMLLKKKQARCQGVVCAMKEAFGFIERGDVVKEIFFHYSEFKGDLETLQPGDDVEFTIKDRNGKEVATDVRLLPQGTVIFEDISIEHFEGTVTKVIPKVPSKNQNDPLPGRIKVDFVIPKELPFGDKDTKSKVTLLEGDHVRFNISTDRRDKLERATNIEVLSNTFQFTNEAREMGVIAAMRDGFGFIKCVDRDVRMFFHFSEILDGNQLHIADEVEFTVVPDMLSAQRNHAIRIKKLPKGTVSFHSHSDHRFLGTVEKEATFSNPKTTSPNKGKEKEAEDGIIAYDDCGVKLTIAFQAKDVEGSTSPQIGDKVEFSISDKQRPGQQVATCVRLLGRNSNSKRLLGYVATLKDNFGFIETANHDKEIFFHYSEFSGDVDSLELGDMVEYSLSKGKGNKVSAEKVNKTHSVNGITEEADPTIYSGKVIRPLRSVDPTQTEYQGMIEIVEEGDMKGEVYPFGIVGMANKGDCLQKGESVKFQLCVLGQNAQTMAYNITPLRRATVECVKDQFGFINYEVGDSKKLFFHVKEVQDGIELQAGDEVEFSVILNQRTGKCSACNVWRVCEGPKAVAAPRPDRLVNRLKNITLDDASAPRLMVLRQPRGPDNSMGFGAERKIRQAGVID

The next assay deals with T3, FLAG-4E-TΔII (human) (UniProt Q9NRA8).
T3 sequence: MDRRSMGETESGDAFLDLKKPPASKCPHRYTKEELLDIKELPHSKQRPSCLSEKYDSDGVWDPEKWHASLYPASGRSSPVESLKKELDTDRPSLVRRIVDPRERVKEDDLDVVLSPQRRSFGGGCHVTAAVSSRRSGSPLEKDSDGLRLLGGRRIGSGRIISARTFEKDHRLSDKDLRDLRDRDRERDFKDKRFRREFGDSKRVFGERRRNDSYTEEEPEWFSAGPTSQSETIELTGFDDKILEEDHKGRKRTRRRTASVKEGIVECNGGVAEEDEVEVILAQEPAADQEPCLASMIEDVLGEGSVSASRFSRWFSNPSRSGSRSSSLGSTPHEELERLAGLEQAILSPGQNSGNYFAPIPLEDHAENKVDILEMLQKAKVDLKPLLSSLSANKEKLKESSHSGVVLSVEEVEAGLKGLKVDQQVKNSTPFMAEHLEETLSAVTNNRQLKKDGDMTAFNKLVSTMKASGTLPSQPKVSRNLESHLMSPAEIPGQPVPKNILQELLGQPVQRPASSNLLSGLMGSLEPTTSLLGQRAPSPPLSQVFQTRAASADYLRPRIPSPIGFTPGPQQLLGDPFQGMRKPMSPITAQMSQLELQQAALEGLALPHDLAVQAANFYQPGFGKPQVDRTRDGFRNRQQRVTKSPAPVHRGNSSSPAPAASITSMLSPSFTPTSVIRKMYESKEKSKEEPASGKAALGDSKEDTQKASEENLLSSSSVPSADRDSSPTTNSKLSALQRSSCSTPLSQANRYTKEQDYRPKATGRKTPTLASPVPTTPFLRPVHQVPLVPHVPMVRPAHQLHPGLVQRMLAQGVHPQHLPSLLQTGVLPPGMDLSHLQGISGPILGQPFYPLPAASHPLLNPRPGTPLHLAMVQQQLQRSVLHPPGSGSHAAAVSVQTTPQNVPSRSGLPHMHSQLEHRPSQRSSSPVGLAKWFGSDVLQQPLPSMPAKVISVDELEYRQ

Turning to “LSM14A, endogenous (from UniProt Q8ND56 1-463)”, the figures for the binding entry (in assay [1]; with FLAG-UNR (human); with FLAG-4E-TΔII (human)) were “binds”, “no binding” and “binds”, respectively.
Consider “eIF4E1, endogenous (from UniProt P06730 1-217)”, for which the binding result (in assay [1]; with FLAG-4E-TΔII (human)) was “binds” each time.
On to “eIF4E2, endogenous (from UniProt O60573 1-245)”, for which the binding result (in assay [1]; with FLAG-4E-TΔII (human)) was “binds” each time.

B1: PAT1B, endogenous (protein, UniProt Q86TB9 1-770)
chain: MFRYESLEDCPLDEDEDAFQGLGEEDEEIDQFNDDTFGSGAVDDDWQEAHERLAELEEKLPVAVNEQTGNGERDEMDLLGDHEENLAERLSKMVIENELEDPAIMRAVQTRPVLQPQPGSLNSSIWDGSEVLRRIRGPLLAQEMPTVSVLEYALPQRPPQGPEDDRDLSERALPRRSTSPIIGSPPVRAVPIGTPPKQMAVPSFTQQILCPKPVHVRPPMPPRYPAPYGERMSPNQLCSVPNSSLLGHPFPPSVPPVLSPLQRAQLLGGAQLQPGRMSPSQFARVPGFVGSPLAAMNPKLLQGRVGQMLPPAPGFRAFFSAPPSATPPPQQHPPGPGPHLQNLRSQAPMFRPDTTHLHPQHRRLLHQRQQQNRSQHRNLNGAGDRGSHRSSHQDHLRKDPYANLMLQREKDWVSKIQMMQLQSTDPYLDDFYYQNYFEKLEKLSAAEEIQGDGPKKERTKLITPQVAKLEHAYKPVQFEGSLGKLTVSSVNNPRKMIDAVVTSRSEDDETKEKQVRDKRRKTLVIIEKTYSLLLDVEDYERRYLLSLEEERPALMDDRKHKICSMYDNLRGKLPGQERPSDDHFVQIMCIRKGKRMVARILPFLSTEQAADILMTTARNLPFLIKKDAQDEVLPCLLSPFSLLLYHLPSVSITSLLRQLMNLPQSAATPALSNPHLTAVLQNKFGLSLLLILLSRGEDLQSSDPATESTQNNQWTEVMFMATRELLRIPQAALAKPISIPTNLVSLFSRYVDRQKLNLLETKLQLVQGIR
On to B1, for which the binding result (in assay [1]; with FLAG-4E-TΔII (human)) was “binds” in each case.

B2: CNOT4, endogenous (protein, UniProt O95628 1-575)
chain: MSRSPDAKEDPVECPLCMEPLEIDDINFFPCTCGYQICRFCWHRIRTDENGLCPACRKPYPEDPAVYKPLSQEELQRIKNEKKQKQNERKQKISENRKHLASVRVVQKNLVFVVGLSQRLADPEVLKRPEYFGKFGKIHKVVINNSTSYAGSQGPSASAYVTYIRSEDALRAIQCVNNVVVDGRTLKASLGTTKYCSYFLKNMQCPKPDCMYLHELGDEAASFTKEEMQAGKHQEYEQKLLQELYKLNPNFLQLSTGSVDKNKNKVTPLQRYDTPIDKPSDSLSIGNGDNSQQISNSDTPSPPPGLSKSNPVIPISSSNHSARSPFEGAVTESQSLFSDNFRHPNPIPSGLPPFPSSPQTSSDWPTAPEPQSLFTSETIPVSSSTDWQAAFGFGSSKQPEDDLGFDPFDVTRKALADLIEKELSVQDQPSLSPTSLQNSSSHTTTAKGPGSGFLHPAAATNANSLNSTFSVLPQRFPQFQQHRAVYNSFSFPGQAARYPWMAFPRNSIMHLNHTANPTSNSNFLDLNLPPQHNTGLGGIPVAGEEEVKVSTMPLSTSSHSLQQGQQPTSLHTTVA
Take B2: the binding result (in assay [1]; with FLAG-UNR (human); with FLAG-4E-TΔII (human)) was “binds” throughout.

Source of the values: paper PMC5291280.
